The shares of active, inactive and inconclusive entries below differ from those in the screen. A potency beside an inconclusive call is a rough fit, not a confirmed value. The source made the active and inactive calls. Unless noted, calls follow the shape of the dose curve; as a rule, active = well fitted curve in the direction sought with a large enough effect; inconclusive = small, poorly fitted or top-dose-only effect, or another doubt; inactive = no such curve, though single readings can be large; an effect the other way counts as inactive or inconclusive.
assay: qHTS of Nrf2 Activators: LOPAC Validation (AID 624149); conditions: Nrf2/ARE reporter cell assay; series mostly up to 46.1 µM; activation: at the top concentration; also: potency is read from the fitted curve at half-maximal effect; as to activation: 0% is about no effect
In short: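 AREc32_Fluc cells, 1000/well in OPTI-MEM with 5% FBS, grown overnight, then exposed to compounds for 24 hr at 37 deg C, 5% CO2. ARE-driven firefly luciferase read by Steady-Glo luminescence after 30 min at RT.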

Row | SMILES | Potency | activation
1 | Cc1cccc(C#Cc2ccccc2)n1 | inconclusive: 25.9 µM [activator, single point] | –
2 | O=C(c1ccc(OCCCc2cnc[nH]2)cc1)C1CC1 | – | inactive: -2.21%
3 | O=c1[nH]c(=O)c2nc3ccccc3nc2[nH]1 | inconclusive: 25.9 µM [activator, partial curve, poor fit] | –
4 | O=C1C(SCCO)=C(SCCO)C(=O)c2ccccc21 | inconclusive: 6.51 µM [activator, partial curve, poor fit] | –
5 | Oc1cc(O)cc(/C=C/c2ccc(O)c(O)c2)c1 | inconclusive: 32.6 µM [activator, partial curve, poor fit] | –
6 | O=C1NC(=O)/C(=C/c2ccc(-c3ccc(F)cc3O)o2)S1 | inconclusive: 23.1 µM [activator, partial curve, poor fit] | –
7 | CC(=O)/C=C1\C(=O)N(C)c2ccccc21 | inconclusive: 16.4 µM [activator, single point] | –
8 | CC(C)(C)c1ccc(S(=O)(=O)/C=C/C#N)cc1 | inconclusive: 11.6 µM [activator, partial curve] | –
9 | O=C(/C=C/c1ccc(O)cc1)c1ccc(O)cc1O | inconclusive: 20.6 µM [activator, single point] | –

assay: HTS Assay for Allosteric Antagonists of the Human D2 Dopamine Receptor: Hit Validation in HTRF (AID 624455); conditions: Cells stably expressing D1 dopamine receptor, inhibition mode; series mostly up to 46.1 µM; activity, negative = inhibition: at the top concentration; also: potency is read from the fitted curve at half-maximal effect;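 also: stable D1 dopamine receptor cell line scored for blocking the D1 response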; as to activity, negative = inhibition: % is scaled to controls: 0 for no effect and ±100 for the full control effect
In short: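 Hit validation in cells stably expressing the D1 dopamine receptor, run in HTRF format. Compounds were tested for their ability to inhibit the D1-mediated response.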

Row | SMILES | activity, negative = inhibition | Potency
10 | Cc1cccc(C#Cc2ccccc2)n1 | inactive: -0.153% | –
11 | N[C@H]1CONC1=O | – | inconclusive: 4.61 µM [inhibitor, partial curve, poor fit]
12 | Nc1nc(Cl)nc2c1ncn2[C@@H]1O[C@H](COP(=O)(O)OP(=O)(O)OP(=O)(O)O)[C@@H](O)[C@H]1O | – | inconclusive: 7.31 µM [inhibitor, partial curve]
13 | CCN(CC)CCCC(C)Nc1c2ccc(Cl)cc2nc2ccc(OC)cc12 (stereo not given) | – | inconclusive: 16.4 µM [inhibitor, single point]

assay: Cytotoxicity counterscreen for NFkB agonists and antagonists (AID 624476); conditions: NFkB reporter cell line viability counterscreen; series mostly up to 46.1 µM; activity change, negative = cytotoxicity: at the top concentration;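 also: cells exposed to compound for 48 hours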; also: potency is read from the fitted curve at half-maximal effect; as to activity change, negative = cytotoxicity: % is scaled to controls: 0 for no effect and ±100 for the full control effect

Row | SMILES | activity change, negative = cytotoxicity | Potency
14 | CS(=O)c1ccc(-c2nc(-c3ccc(F)cc3)c(-c3ccncc3)[nH]2)cc1 (stereo not given) | inactive: -4.77% | –
15 | Cc1cc(C=c2sc3nc4ccccc4n3c2=O)c(C)n1-c1ccccc1 | – | inconclusive: 20.9 µM [inhibitor, partial curve]
16 | Cc1nc(N)sc1-c1ccnc(Nc2ccc(N3CCOCC3)cc2)n1 | inactive: -16.8% | –
17 | CC(O)=C(C#N)C(=O)Nc1ccc(C(F)(F)F)cc1 | – | inconclusive: 14.8 µM [inhibitor, partial curve]
18 | C[C@@H](O[C@H]1OCCN(Cc2n[nH]c(=O)[nH]2)[C@@H]1c1ccc(F)cc1)c1cc(C(F)(F)F)cc(C(F)(F)F)c1 | – | active: 29.6 µM
19 | CN(C)c1ccc(Nc2nc(N)n(C(=O)c3c(F)cccc3F)n2)cc1 | – | inconclusive: 29.6 µM [inhibitor, partial curve, poor fit]
20 | O=C(O)Cc1cccc(OCCCN(Cc2cccc(C(F)(F)F)c2Cl)CC(c2ccccc2)c2ccccc2)c1 | – | active: 26.4 µM
21 | OCCC#Cc1nc(-c2ccc(F)cc2)c(-c2ccncc2)n1CCCc1ccccc1 | – | inconclusive: 29.6 µM [inhibitor, single point]
22 | COc1cc2nc(-c3ccc(N4CCN(C)CC4)cc3)nc(NCCN3CCOCC3)c2cc1OC | – | inconclusive: 33.2 µM [inhibitor, single point]
23 | Nc1nccc(Oc2ccc(NC(=O)c3c[nH]cc(-c4ccc(F)cc4)c3=O)cc2F)c1Cl | – | active: 18.7 µM
24 | COc1ccc(-c2oc3cc(OC)ccc3c2C(=O)c2ccc(C#N)cc2)cc1 | inactive: -8.09% | –

assay: qHTS Assay for Identification of Small Molecule Agonists for NFkB Signaling Pathway. (AID 624478); conditions: NFkB pathway reporter cell assay, agonist mode, cells co-stimulated with 10 pM TNF alpha; series mostly up to 46.1 µM; activation: at the top concentration; as to activation: 0% is about no effect
In short: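 NFkB-bla ME-180 cells carry a beta-lactamase reporter. They received compound plus TNF alpha at 10 pM final (its EC50) for 5 h at 37 C. Reporter activity was read as 460/530 nm emission ratio after 2 h LiveBLAzer substrate loading.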

Row | SMILES | activation | Potency
25 | Cc1nc(N)sc1-c1ccnc(Nc2ccc(N3CCOCC3)cc2)n1 | inactive: -1.15% | –
26 | CC(O)=C(C#N)C(=O)Nc1ccc(C(F)(F)F)cc1 | inactive: -1.67% | –
27 | C[C@@H](O[C@H]1OCCN(Cc2n[nH]c(=O)[nH]2)[C@@H]1c1ccc(F)cc1)c1cc(C(F)(F)F)cc(C(F)(F)F)c1 | inactive: -1.3% | –
28 | O=C(O)Cc1cccc(OCCCN(Cc2cccc(C(F)(F)F)c2Cl)CC(c2ccccc2)c2ccccc2)c1 | – | inconclusive: 33.2 µM [activator, single point]
29 | COc1cc2nc(-c3ccc(N4CCN(C)CC4)cc3)nc(NCCN3CCOCC3)c2cc1OC | – | inconclusive: 26.4 µM [activator, single point]
30 | Nc1nccc(Oc2ccc(NC(=O)c3c[nH]cc(-c4ccc(F)cc4)c3=O)cc2F)c1Cl | – | inconclusive: 1.48 µM [activator, full curve]

For reference, two of the compounds above.
Row | SMILES | activation | Potency
29 | COc1cc2nc(-c3ccc(N4CCN(C)CC4)cc3)nc(NCCN3CCOCC3)c2cc1OC | – | inconclusive: 26.4 µM [activator, single point]
30 | Nc1nccc(Oc2ccc(NC(=O)c3c[nH]cc(-c4ccc(F)cc4)c3=O)cc2F)c1Cl | – | inconclusive: 1.48 µM [activator, full curve]

assay: qHTS Assay for Identification of Small Molecule Antagonists for NFkB Signaling Pathway. (AID 624479; calls by dose curve; also: potency is read from the fitted curve at half-maximal effect; as to activity change, negative = inhibition: % is scaled to controls: 0 for no effect and ±100 for the full control effect); conditions: NFkB pathway reporter cell assay, antagonist mode; series mostly up to 38.3 µM; activity change, negative = inhibition: at the top concentration

Row | SMILES | activity change, negative = inhibition | Potency
31 | CS(=O)c1ccc(-c2nc(-c3ccc(F)cc3)c(-c3ccncc3)[nH]2)cc1 (stereo not given) | inactive: -17.6% | –
32 | Cc1cc(C=c2sc3nc4ccccc4n3c2=O)c(C)n1-c1ccccc1 | inactive: -6.43% | –
33 | CN(C)c1ccc(Nc2nc(N)n(C(=O)c3c(F)cccc3F)n2)cc1 | – | active: 14.9 µM
34 | O=C(O)Cc1cccc(OCCCN(Cc2cccc(C(F)(F)F)c2Cl)CC(c2ccccc2)c2ccccc2)c1 | – | inconclusive: 5.95 µM [inhibitor, full curve]
35 | OCCC#Cc1nc(-c2ccc(F)cc2)c(-c2ccncc2)n1CCCc1ccccc1 | – | active: 14.9 µM
